# Measurements as given in patent publication US9782491B2, “Peptide conjugates for treating pain” (priority 2012, dated 2017).
# Not every detail of the peptide structures is certain; ends, links or a residue may be inferred. Ends that are not written are not given here.
# How the values were obtained:
# [1] = tested on: diabetic (DB) A/J mice; test: Streptozocin type 1 diabetes model, mechanical hyperalgesia; assay type: in vivo, mouse; details: 10 mg/kg i.p., assessed 1 and 4 hr later
# [2] = tested on: R-type (CaV2.3) Ca2+ currents; test: R-type Ca2+ current recording in sensory neurons; assay type: cell-based; details: 10 μM bath-applied for at least 10 min; L-, P/Q-, N-type blocked
# [3] = tested on: lumbar 4-5 DRG neurons from d4T-treated rats; test: Current clamp recording of action potential firing; assay type: cell-based, rat; details: 10 μM
# Procedure: EXAMPLE. […] Current clamp recordings were performed on small-to-medium (>30 μm->40 μm) diameter lumbar 4-5 DRG neurons from d4T-treated rats. Firing of 4-6 action potentials (APs) was elicited by a 1 second depolarizing current injection (ranging from 0.1 to 0.4 nA depending on the cell) every 30 seconds.
sequence,measurement,setting,value
YGRKKRRQRRRARSRLAELRGVPRGL [ST1-104],mean paw withdrawal threshold,[1],reversed
same,R-type calcium current density,[2],did not show a significant decrease over control
same,number of elicited action potentials,[3],reduces the number of elicited action potentials
